# Laboratory results taken from PubChem BioAssay (NCATS).
# This list was built around the results that the source calls inconclusive (neither active nor inactive); the mix of calls is not that of the screen. Potencies beside an inconclusive call are fits to weak or partial responses and may not hold up. Activity calls are given as the source filed them. Calls come from the whole dose curve; as a rule, active = well fitted cell-killing curve with a large enough effect; inconclusive = small, poorly fitted or top-dose-only effect, or effect the other way; inactive = no such curve, though single readings can be large or run the other way. *1 amine or outer side, *2 acyl side, *3 side chain or, on linkers, in order; H or OH if unused. Where a SMILES comes first, the peptide text is derived from it. Bridges are numbered along the chain shown (N, C = ends). Roman numbers before positions name the chains, in order. [ ]: non-standard residue; d: D form. Actinocin(9to1) = Cc1c2oc3c(C)ccc(C(=O)[*:1])c3nc-2c(C(=O)[*:2])c(N)c1=O; NMeV = CN[CH](C(=O)O)C(C)C; Sar = CNCC(=O)O
# Test: Quantitative High-Throughput drug screen in 47 multiple myeloma cell lines against the NCATS MIPE library collection: OCIMY7_PLB cell viability assay (AID 1918987); note: nearly all actives have a fitted effect of over 65% in size
# Settings: OCI-MY7 myeloma viability, CellTiter-Glo ATP, 48 h; series mostly up to 45.8 µM
# Source text: PI: Beverly A. Mock Ph.D.
# Laboratory of Cancer Biology and Genetics,
# Center for Cancer Research, National Cancer Institute,
# National Institute of Health, Bethesda, Maryland
# Drug resistance and disease progression are common in multiple myeloma (MM) patients, underscoring the need for new therapeutic combinations. […] We hypothesized that effective combinations would reduce MYC expression and enhance p16 activity. […] These preclinical data identify potentially useful drug combinations for evaluation in drug-resistant MM and reveal potential mechanisms of combined drug sensitivity.
# Described herein is the primary MIPE qHTS used to cherrypick compounds. Validated compounds were then further tested for potential synergistic activiy.
# [1] Peat TJ, Gaikwad SM, Dubois W, Gyabaah-Kessie N, Zhang S, Gorjifard S, Phyo Z, Andres M, Hughitt VK, Simpson RM, Miller MA, Girvin AT, Taylor A, Williams D, D'Antonio N, Zhang Y, Rajagopalan A, Flietner E, Wilson K, Zhang X, Shinn P, Klumpp-Thomas C, McKnight C, Itkin Z, Chen L, Kazandijian D, Zhang J, Michalowski AM, Simmons JK, Keats J, Thomas CJ, Mock BA. Drug combinations identified by high-throughput screening promote cell cycle transition and upregulate Smad pathways in myeloma. Cancer Lett. 2023 Aug 1;568:216284. doi: 10.1016/j.canlet.2023.216284. Epub 2023 Jun 24. PMID: 37356470; PMCID: PMC10408729.
# SEQUENCE No. (e.g., 1, 2, 3, etc.); […] (e.g., Cells, Incubation, Reagent, etc.); VALUE and DESCRIPTION.
# 1; Cells; 5 uL; white, solid bottom 1536-well Greiner assay plate.
# 2; Compounds; 23 nL; Kalypsis pin tool (Wako USA) equipped with a 1536-well pin head to transfer to the assay plates.
# 3; Incubation; 48 hours; 37C incubation.
# 4; Reagent;5uL; CellTiter Glo (Promega).
# 5; Detector; 425V; Luminescence; Viewlux PerkinElmer.
# NOTES (numbers refer to Sequence numbers above)
# 1. The cell-based screening methods employed in this study were like those previously published. Briefly, the corresponding myeloma cell lines were screened in 1,536-well plates with 500 cells, 5-uL per well for inhibition of cell viability (assessed by measuring ATP levels with CellTiterGlo).
# 2. NCATS MIPE 4.0 library of approved and investigational drugs were added using the Kalypsis pin tool. Wells treated with DMSO only for 100% viability and media only for 0% viability were used as controls.
# 3. The assay plates were covered and incubated for 48 hours in a 37C, 5% CO2 incubator with controlled humidity.
# 4. After 48 hours, CellTilter-GloTM luminescent substrate mix (Promega) reagent was added to the assay plate and plates we incubated for 5 min at room temperature.
# 5. Signal was measured as median relative luminescence units on a ViewLux (PerkinElmer) multiplate reader.
# [1] Heske CM, Davis MI, Baumgart JT, Wilson K, Gormally MV, Chen L, Zhang X, Ceribelli M, Duveau DY, Guha R, Ferrer M, Arnaldez FI, Ji J, Tran HL, Zhang Y, Mendoza A, Helman LJ, Thomas CJ. Matrix Screen Identifies Synergistic Combination of PARP Inhibitors and Nicotinamide Phosphoribosyltransferase (NAMPT) Inhibitors in Ewing Sarcoma. Clin Cancer Res. 2017 Dec 1;23(23):7301-7311. doi: 10.1158/1078-0432.CCR-17-1121. Epub 2017 Sep 12. PMID: 28899971; PMCID: PMC6636827.
# Potency is the fitted concentration of half-maximal effect.
row,SMILES,Potency
1,COc1cc(C(=O)N2CCC(N3CCN(C)CC3)CC2)ccc1Nc1ncc2c(n1)N(C)c1ccccc1C(=O)N2C,active: 2960 nM
2,CN1CCN(c2c(F)cc3c(=O)c(C(=O)O)cn4c3c2OCN4C)CC1,"inconclusive: 6620 nM [cytotoxic, partial curve, poor fit]"
3,O=C(O)C[C@H](O)C[C@H](O)C=Cc1c(C2CC2)nc2ccccc2c1-c1ccc(F)cc1,active: 2350 nM
4,COc1ccc(C[C@@H](C)[C@@H](C)Cc2ccc(OC)c(OC)c2)cc1OC,active: 296 nM
5,Cc1cn[nH]c1,"inconclusive: 4690 nM [cytotoxic, partial curve, poor fit]"
6,CS(=O)(=O)N1CCc2c(-c3cnc(N)nc3)nc(N3CCOCC3)nc21,"inconclusive: 11.8 nM [cytotoxic, full curve, poor fit]"
7,C[C@@H]1CN(c2c(F)c(N)c3c(=O)c(C(=O)O)cn(C4CC4)c3c2F)C[C@H](C)N1,"inconclusive: 575 nM [cytotoxic, full curve, poor fit]"
8,Cc1nc2ccc(CN(C)c3ccc(C(=O)N[C@@H](CCC(=O)O)C(=O)O)s3)cc2c(=O)[nH]1,inactive
9,COC(=O)C1C2CC3c4[nH]c5cc(OC)ccc5c4CCN3CC2CC(OC(=O)c2cc(OC)c(OC)c(OC)c2)C1OC (stereo not given),active: 16600 nM
10,CCCCCCCCCCCCCCCCCCCCCCO,"inconclusive: 16.6 nM [rising, full curve, poor fit]"
11,CN(C)CCc1c[nH]c2ccc(CS(=O)(=O)N3CCCC3)cc12,"inconclusive: 37200 nM [cytotoxic, partial curve, poor fit]"
12,CCc1c2c(nc3ccc(O)cc13)-c1cc3c(c(=O)n1C2)COC(=O)[C@]3(O)CC,active: 1 nM
13,Cc1ccc([N+](=O)[O-])cc1S(=O)(=O)N(C)N=Cc1cnc2ccc(Br)cn12,"inconclusive: 5.9 nM [cytotoxic, full curve]"
14,CCOC(=O)N1CCC(=C2c3ccc(Cl)cc3CCc3cccnc32)CC1,"inconclusive: 296 nM [cytotoxic, full curve, poor fit]"
15,COc1ccc2cc3[n+](cc2c1OC)CCc1cc2c(cc1-3)OCO2,"inconclusive: 66200 nM [cytotoxic, partial curve, poor fit]"
16,"Cc1c2oc3c(C)ccc(C(=O)NC4C(=O)NC(C(C)C)C(=O)N5CCCC5C(=O)N(C)CC(=O)N(C)C(C(C)C)C(=O)OC4C)c3nc-2c(C(=O)NC2C(=O)NC(C(C)C)C(=O)N3CCCC3C(=O)N(C)CC(=O)N(C)C(C(C)C)C(=O)OC2C)c(N)c1=O (stereo not given) (I: TVP[Sar][NMeV] / II: TVP[Sar][NMeV]; ester I:1-I:C, II:1-II:C; linker I:N-II:N via Actinocin(9to1); configuration not given here)",inactive
17,CCc1ccc(C(=O)Nc2cc(CN3CCN(C)CC3)cc(C(F)(F)F)c2)cc1C#Cc1cnc2ccnn2c1,active: 1870 nM
18,CC(N)C12CC3CC(CC(C3)C1)C2 (stereo not given),"inconclusive: 3.7 nM [rising, full curve, poor fit]"
19,CC(=O)Nc1nc(C)c(-c2ccc(Cl)c(S(=O)(=O)NCCO)c2)s1,active: 105 nM
20,OCCNC1CCCc2c1[nH]c1ccc(-c3ccccc3)cc21 (stereo not given),active: 20900 nM

row,SMILES,Potency
1,O=C(c1ccc(F)cc1)N1CCC[C@H](c2nc(-c3ccc(F)cc3)no2)C1,"inconclusive: 118 nM [cytotoxic, full curve, poor fit]"
2,CC(C)c1cc(-c2n[nH]c(=O)n2-c2ccc3c(ccn3C)c2)c(O)cc1O,active: 11.8 nM
3,CNC(=O)c1ccccc1Sc1ccc2c(C=Cc3ccccn3)n[nH]c2c1,active: 2640 nM
4,Nc1ncnc2c1c(-c1cnc3[nH]ccc3c1)nn2C1CCCC1,active: 1180 nM
5,Cc1cc(Nc2ncnc3ccc(-c4ccc(CNCCS(C)(=O)=O)o4)cc23)ccc1Oc1ccn2ncnc2c1,active: 9350 nM
6,CN(C)CC[C@H](c1ccc(Cl)cc1)c1ccccn1,"inconclusive: 26.4 nM [rising, full curve, poor fit]"
7,Clc1ccc(C(c2ccc(Cl)cc2)n2cc[n+](CC(OCc3ccc(Cl)cc3Cl)c3ccc(Cl)cc3Cl)c2)cc1 (stereo not given),"inconclusive: 37200 nM [cytotoxic, partial curve, poor fit]"
8,COC(=O)Nc1nc2ccc(C(=O)c3ccc(F)cc3)cc2[nH]1,active: 296 nM
9,CCOC(=O)[C@H](CCc1ccccc1)N[C@@H](C)C(=O)N1[C@@H](C(=O)O)C[C@H]2CCC[C@@H]21,"inconclusive: 8330 nM [cytotoxic, full curve, poor fit]"
10,C[C@H](NCc1ccc(OCc2cccc(F)c2)cc1)C(N)=O,active: 3320 nM
11,Cc1coc2c1C(=O)C(=O)c1c-2ccc2c(C)cccc12,active: 5900 nM
12,CC(C=CC1=C(C)CCCC1(C)C)=CC=CC(C)=CC(=O)Nc1ccc(O)cc1,active: 4290 nM
13,Cn1cc(CNCC2CCN(c3ncc(C(=O)NO)cn3)CC2)c2ccccc21,active: 33.2 nM
14,CC(=O)[C@H]1CC[C@H]2[C@@H]3CCC4=CC(=O)CC[C@]4(C)[C@H]3CC[C@]12C,"inconclusive: 9350 nM [cytotoxic, full curve, poor fit]"
15,Cc1c(Cn2c(C)nc3c(C(=O)O)cc(N4CCOCC4)cc32)cccc1C(F)(F)F,active: 264 nM
16,O=C(O)COCCN1CCN(C(c2ccccc2)c2ccc(Cl)cc2)CC1 (stereo not given),"inconclusive: 935 nM [cytotoxic, full curve, poor fit]"
17,O=S(=O)(c1cccc2cnccc12)N1CCCNCC1,"inconclusive: 16600 nM [cytotoxic, partial curve, poor fit]"
18,CCS(=O)(=O)Nc1ccc2[nH]c(O)c(C(=Nc3ccc(CN4CCCCC4)cc3)c3ccccc3)c2c1,active: 66.2 nM
19,CNC(=O)c1c(F)cccc1Nc1nc(Nc2cc3c(cc2OC)CCN3C(=O)CN(C)C)nc2[nH]ccc12,active: 105 nM
20,COC(=O)[C@@H]1[C@H]2C[C@@H]3c4[nH]c5ccccc5c4CCN3C[C@@H]2CC[C@@H]1O,inactive

# As a working copy, 2 of the compounds above:
row,SMILES,Potency
18,CCS(=O)(=O)Nc1ccc2[nH]c(O)c(C(=Nc3ccc(CN4CCCCC4)cc3)c3ccccc3)c2c1,active: 66.2 nM
19,CNC(=O)c1c(F)cccc1Nc1nc(Nc2cc3c(cc2OC)CCN3C(=O)CN(C)C)nc2[nH]ccc12,active: 105 nM
